Measured values reported in PubChem BioAssay AID1671190 (National Center for Advancing Translational Sciences (NCATS), 2021).
Where “and” joins values, the source holds several entries; their conditions need not be identical. Equal entries are not always repeated. Hit rate of the full screen: of about 580,000 compounds, about 6,100 (1.1%) were called active. This list was built around the results that the source calls inconclusive (neither active nor inactive); the mix of calls is not that of the screen. Calls come from the whole dose curve; as a rule, active = well fitted inhibition curve with a large enough effect; inconclusive = small, poorly fitted or top-dose-only effect, or another doubt; inactive = no such curve, though single readings can be large or run the other way. Potencies of inconclusive entries are doubtful fits and often do not repeat.

Protein sequences, listed by entry. Tags and fused reporters are not part of them.
UniProt P18054, whole entry, looked up: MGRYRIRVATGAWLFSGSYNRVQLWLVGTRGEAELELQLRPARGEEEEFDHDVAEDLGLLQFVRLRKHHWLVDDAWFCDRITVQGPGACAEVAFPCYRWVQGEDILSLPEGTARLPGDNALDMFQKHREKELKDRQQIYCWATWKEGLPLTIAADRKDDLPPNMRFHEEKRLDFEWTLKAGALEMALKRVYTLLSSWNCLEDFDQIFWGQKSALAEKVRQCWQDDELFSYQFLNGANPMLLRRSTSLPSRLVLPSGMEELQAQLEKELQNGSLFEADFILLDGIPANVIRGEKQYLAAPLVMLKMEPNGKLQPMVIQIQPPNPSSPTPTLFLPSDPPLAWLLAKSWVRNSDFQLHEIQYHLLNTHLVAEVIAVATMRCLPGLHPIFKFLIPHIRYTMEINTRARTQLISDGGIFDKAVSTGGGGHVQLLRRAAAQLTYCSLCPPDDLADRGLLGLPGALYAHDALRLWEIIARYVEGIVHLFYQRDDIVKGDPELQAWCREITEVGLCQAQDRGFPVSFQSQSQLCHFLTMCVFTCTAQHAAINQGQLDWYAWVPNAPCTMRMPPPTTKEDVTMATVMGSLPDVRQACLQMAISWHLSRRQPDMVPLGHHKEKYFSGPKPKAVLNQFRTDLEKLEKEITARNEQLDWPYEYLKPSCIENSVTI

These compounds were tested against Polyunsaturated fatty acid lipoxygenase ALOX12 (Homo sapiens) (UniProt P18054) (assay: Primary qHTS assay for inhibitors of human arachidonate 12S-lipoxygenase (ALOX12): Round 2). Settings: purified 12hLO, xylenol orange hydroperoxide absorbance; activity change, negative = inhibition: at 108 µM (top of the series) unless noted.
Method in brief: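 Purified human 12hLO at 150 nM in 25 mM Hepes, 0.01% Triton X-100, pH 7.0, preincubated 15 min at room temperature with compound. Reaction started with 40 uM arachidonic acid, 30 min at room temperature. Hydroperoxide measured by Fe-xylenol orange, 573/405 nm absorbance ratio.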
% is set by controls: 0 for no effect and ±100 for the full control effect; potency is the fitted concentration of half-maximal effect.

| SMILES | activity change, negative = inhibition | Potency |
| --- | --- | --- |
| COc1ccc(CCNC(=O)CN2C(=O)c3ccccc3S2(=O)=O)cc1OC | inactive: 154% | – |
| CCNc1nc(NCC)nc(OCCOC(=O)COc2ccc(Cl)cc2Cl)n1 | – | inconclusive: 50.1 µM [inhibitor, partial curve, poor fit] |
| NC(=S)N/N=C/c1ccc(-c2cc(Cl)cc(Cl)c2)o1 | – | active: 39.8 µM |
| COc1cccc(/C=C2\SC(=S)N(N3C(=O)CCCC3=O)C2=O)c1 | – | inconclusive: 39.8 µM [inhibitor, partial curve, poor fit] |
| Cc1ccccc1NS(=O)(=O)c1ccc(C(=O)N2CCN(c3ccccc3O)CC2)cc1 | – | inconclusive: 39.8 µM [inhibitor, partial curve] |
| CCOc1ccc(NC(=O)C2CCC(CNc3c(N4CCOCC4)c(=O)c3=O)CC2)cc1 (centres undefined) | – | inconclusive: 0.316 µM [inhibitor, full curve, poor fit] |
| O=C(O)c1ccc(CN2C[C@@H](F)[C@@H](OCc3nc4ccc(C(F)(F)F)cc4[nH]3)C2)cc1 | – | inconclusive: 22.4 µM [inhibitor, full curve] |
| Cc1ccc(C)c(Cn2c(C(C)NC(=O)c3ccccc3)nc3ccccc32)c1 (centres undefined) | inactive: -23.7% | – |
| O=C(NCCCCO)c1c(-c2ccccc2)oc2c1C(OCCCCCO)CCC2 (centres undefined) | inconclusive: -34.5% [inhibitor] | – |
| COc1ccc(-c2nnc3ccc(N4CCC(c5ccccc5)CC4)nn23)nc1 | inactive: 32% [at 176 µM] | – |
| CCOC(=O)c1[nH]c2ccccc2c1NC(=S)Nc1cccc(C)c1C | – | inconclusive: 56.2 µM [inhibitor, partial curve, poor fit] |
| O=C(COc1ccc2ccccc2c1)NCc1ccccc1CN1CCCC1 | – | inconclusive: 89.1 µM [inhibitor, partial curve, poor fit] |
| COc1ccc(CCNC(=O)c2cc(-c3ccco3)nc3ccccc23)cc1 | – | inconclusive: 35.5 µM [inhibitor, partial curve, poor fit] |
| CCN=C1SC(CC(=O)Nc2ccc(C(F)(F)F)cc2)C(=O)N1CC (centres undefined) | inactive: 8.36% | – |
| CCN1CCN(c2oc(-c3ccccc3C)nc2S(=O)(=O)c2ccccc2)CC1 | – | inconclusive: 44.7 µM [inhibitor, partial curve, poor fit] |
| CSc1cccc(NC(=O)N2CCC3(CC2)N=C(c2cccc(Cl)c2)C(=O)N3)c1 | – | inconclusive: 44.7 µM [inhibitor, partial curve, poor fit] |
| O=C(CSC1=Nc2ccccc2C2=NC(Cc3ccccc3)C(=O)N12)Nc1ccccc1 (centres undefined) | – | inconclusive: 56.2 µM [inhibitor, partial curve, poor fit] |
| CN(C)CCCN(C(=O)c1sc2ccccc2c1Cl)c1nc2ccc(F)cc2s1 | – | inconclusive: 44.7 µM [inhibitor, partial curve, poor fit] |
| CC(C)(C)NC(=O)C[C@@H]1CCNC[C@@H]1Cc1cc(CC2CCCCC2)on1 | – | inconclusive: 28.2 µM [inhibitor, full curve] |
| Cc1ccc(NC2=CC(=O)CCC2)cc1C | – | inconclusive: 126 µM [inhibitor, single point] |
| O=C(NC1CCCC1)C(c1cccs1)N(CC1CCCO1)C(=O)Cc1cccs1 (centres undefined) | – | inconclusive: 31.6 µM [inhibitor, single point] |
| CCOc1ccc(-c2noc(CCC(=O)NCCc3ccccc3)n2)cc1OC | – | inconclusive: 12.6 µM [inhibitor, partial curve, poor fit] |

Retrieved one by one from the entries so far (3):

| SMILES | activity change, negative = inhibition | Potency |
| --- | --- | --- |
| CCNc1nc(NCC)nc(OCCOC(=O)COc2ccc(Cl)cc2Cl)n1 | – | inconclusive: 50.1 µM [inhibitor, partial curve, poor fit] |
| NC(=S)N/N=C/c1ccc(-c2cc(Cl)cc(Cl)c2)o1 | – | active: 39.8 µM |
| O=C(O)c1ccc(CN2C[C@@H](F)[C@@H](OCc3nc4ccc(C(F)(F)F)cc4[nH]3)C2)cc1 | – | inconclusive: 22.4 µM [inhibitor, full curve] |

Going on with the list.

| SMILES | activity change, negative = inhibition | Potency |
| --- | --- | --- |
| CCN(Cc1ccccc1)C1CCN(Cc2ccc(SC)cc2)CC1 | – | inconclusive: 0.631 µM [inhibitor, full curve, poor fit] |
| CC(C)N1CCc2c(sc(NC(=S)NC(=O)c3ccccc3)c2C#N)C1 | – | inconclusive: 35.5 µM [inhibitor, partial curve] |
| O=C1[C@H]2C(c3ccccc3)=NN(c3ccccc3)[C@H]2C(=O)N1c1ccccc1 | – | inconclusive: 56.2 µM [inhibitor, partial curve, poor fit] |
| N=c1c2c(-c3ccccc3)c(-c3ccccc3)n(Cc3ccco3)c2ncn1CCCN1CCOCC1 | inactive: -17.4% | – |
| Cc1cccc(NC(=O)CSc2nc3sc(C)cc3c(=O)n2C)c1 | – | inconclusive: 100 µM [inhibitor, single point] |
| Cc1cccc(NC(=O)N(Cc2cccs2)C2CC2)c1 | inactive: 38.5% | – |
| CCn1cc(C(=O)NCCCOC(C)C)c(=O)c2cc(S(=O)(=O)N(C)C3CCCCC3)ccc21 | – | inconclusive: 89.1 µM [inhibitor, partial curve, poor fit] |
| CCOc1cccc(C(=O)N2CCCCC2c2cccnc2)c1 (centres undefined) | – | inconclusive: 0.447 µM [inhibitor, full curve, poor fit] |
| Cc1cnc(C(=O)OCC(=O)Nc2ccc3c(c2)OCCO3)cn1 | – | inconclusive: 126 µM [inhibitor, single point] |
| COc1ccc(S(=O)(=O)N2CCN(CCNC(=O)COc3ccc(C(C)C)cc3)CC2)cc1 | – | active: 35.5 µM |
| CCN1C(=O)[C@H]2[C@@H](c3ccc(C)cc3)N[C@]3(CCCN(CC4CCCCC4)C3=O)[C@H]2C1=O | – | inconclusive: 50.1 µM [inhibitor, partial curve, poor fit] |
| NC(=S)N1CCCN1c1ccccc1 | – | inconclusive: 25.1 µM [inhibitor, partial curve, poor fit] |
| CC(C)OCCCNC(=O)C1CCCCC1 | inactive: -7.01% | – |
| CCCC(c1nnnn1Cc1cccs1)N1CCN(C2CCCC2)CC1 (centres undefined) | – | inconclusive: 5.01 µM [inhibitor, partial curve] |
| CC1=NN(C(N)=S)C(=O)C1N=Nc1ccc(C)c(Br)c1 (centres undefined) | inactive: 204% | – |
| Cc1ccc(CC(=O)N(Cc2nc(-c3ccccc3)no2)C2CCCCC2)cc1 | – | inconclusive: 50.1 µM [inhibitor, partial curve, poor fit] |
| O=C(O)c1cccc(C2CCCN(C(=O)CCCn3ccnc3)C2)c1 (centres undefined) | – | inconclusive: 20 µM [inhibitor, full curve, poor fit] |
| COC(=O)c1c(NC(=O)c2ccc(OC)cc2)c2cc(NC(C)CCn3cccn3)cnc2n1C (centres undefined) | inactive: 12.3% | – |
| COc1ccc(-c2cc(N3CCCC(NC(=O)c4ccc5[nH]ccc5c4)C3)n[nH]2)cc1 (centres undefined) | – | inconclusive: 89.1 µM [inhibitor, single point] |
| CS(=O)(=O)N1CCc2cc(NS(=O)(=O)c3ccc4c(c3)CC(=O)N4)ccc21 | – | inconclusive: 100 µM [inhibitor, single point] |
| O=c1cc(CSc2ccc(Cl)cc2)nc(-c2ccccn2)[nH]1 | inactive: -4.33% | – |
| COc1ccc(OC)c(/C=C2\SC(=S)N(NS(=O)(=O)c3ccc(C)cc3)C2=O)c1 | – | inconclusive: 39.8 µM [inhibitor, partial curve, poor fit] |

| SMILES | activity change, negative = inhibition | Potency |
| --- | --- | --- |
| O=C(O)c1ccc(N(Cc2ccccc2)S(=O)(=O)c2ccccc2)cc1 | inactive: 3.9% | – |
| CN(Cc1ccccc1)S(=O)(=O)c1ccc(F)c(C(=O)Nc2cc(Cl)cc(Cl)c2)c1 | inconclusive: -31.9% [inhibitor] | – |
| CCc1cccc(CC)c1NC(=O)CN1CCN(c2ccccc2)CC1 | – | inconclusive: 0.224 µM [inhibitor, full curve, poor fit] |
| CC1CC(C)C(=O)C(C(CC2CC(=O)NC(=O)C2)OC(=O)CC(=O)c2ccccc2)C1 (centres undefined) | inactive: -3.29% | – |
| O=C(COc1nc2ccccc2nc1N1CCOCC1)Nc1ccc(F)cc1 | – | inconclusive: 44.7 µM [inhibitor, single point] |
| COc1ccccc1N1CCN(C(=O)CCn2ccc(=O)[nH]c2=O)CC1=O | – | inconclusive: 89.1 µM [inhibitor, partial curve, poor fit] |
| COc1ccc(-c2csc(C(C)(O)c3ccc(F)c(F)c3)n2)cc1 (centres undefined) | – | inconclusive: 79.4 µM [inhibitor, partial curve, poor fit] |
| Cc1nn(CCc2nn[nH]n2)c2nc(-c3ccc(C4CCCCC4)cc3)cc(C(F)(F)F)c12 | – | inconclusive: 126 µM [inhibitor, single point] |
| COc1cccc(C2=CC(=O)C[C@H](c3ccc(Cl)cc3)C2)c1 | inactive: -2.02% | – |
| C=CCOC(=O)C(C#N)c1nc2ccccc2nc1N1CCN(c2ccccc2OCC)CC1 (centres undefined) | – | inconclusive: 89.1 µM [inhibitor, single point] |
| CC(C)c1ccc2c(c1)C1(CC(=O)Nc3c1sc(C(=O)O)c3-c1ccccc1F)C(=O)N2C (centres undefined) | – | inconclusive: 39.8 µM [inhibitor, partial curve, poor fit] |
| O=C(NNC(=S)NC(=O)c1ccc(Br)cc1)c1ccc([N+](=O)[O-])cc1 | – | active: 44.7 µM |
| OC(COC1CCCCC1)CN1CCN(c2ccccc2)CC1 (centres undefined) | inactive: -17.1% | – |
| CN(/N=C/c1ccc([N+](=O)[O-])o1)c1ccccc1 | – | inconclusive: 50.1 µM [inhibitor, partial curve, poor fit] |
| CCCOC(=O)c1ccc(NC(=O)Cc2cccs2)cc1 | – | inconclusive: 44.7 µM [inhibitor, partial curve, poor fit] |
| Clc1cccc(OCCN2CCCC2)c1 | inactive: 0% | – |
| CC(=O)c1c(C)[nH]c(C(=O)C(C)Cl)c1C (centres undefined) | – | inconclusive: 22.4 µM [inhibitor, full curve] |
| CC(C)n1cc(/C=C(\C#N)S(=O)(=O)c2ccccc2)c2ccccc21 | – | inconclusive: 56.2 µM [inhibitor, partial curve, poor fit] |
| COC(=O)[C@H](c1ccccc1Cl)N1CCc2sccc2C1 | – | inconclusive: 13.7 µM [inhibitor, partial curve] and inconclusive: 39.8 µM [inhibitor, partial curve] |
| CC(C)c1ccc(CN2C(=O)C(n3ccc4ccccc43)c3cccc(F)c32)cc1 (centres undefined) | – | inconclusive: 22.4 µM [inhibitor, partial curve, poor fit] |
